Test results as given in patent US20190062445A1.
No constants are given. Whether binding was seen depends on the method and setting. Some binding calls cover weakened binding; strength is not graded here.

Sequences of proteins named here, by UniProt entry; tags and fusion partners are left off. A change or cut given only in a name is not applied to a line headed by its entry. Residues count along the entry.
UniProt Q07011, residues 24-255: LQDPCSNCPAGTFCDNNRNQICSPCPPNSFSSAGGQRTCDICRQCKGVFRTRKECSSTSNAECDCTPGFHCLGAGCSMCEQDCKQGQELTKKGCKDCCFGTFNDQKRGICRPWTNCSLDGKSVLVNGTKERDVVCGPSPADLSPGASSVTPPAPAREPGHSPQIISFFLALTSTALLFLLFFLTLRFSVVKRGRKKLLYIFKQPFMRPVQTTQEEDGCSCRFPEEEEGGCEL
UniProt A9YYE7, residues 24-254: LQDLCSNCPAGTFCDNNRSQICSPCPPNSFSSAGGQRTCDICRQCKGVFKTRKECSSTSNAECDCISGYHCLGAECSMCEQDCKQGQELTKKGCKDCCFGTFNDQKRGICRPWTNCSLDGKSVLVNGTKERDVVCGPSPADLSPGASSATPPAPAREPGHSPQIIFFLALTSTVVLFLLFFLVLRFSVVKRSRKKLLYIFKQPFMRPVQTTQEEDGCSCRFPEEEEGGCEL
UniProt P41273: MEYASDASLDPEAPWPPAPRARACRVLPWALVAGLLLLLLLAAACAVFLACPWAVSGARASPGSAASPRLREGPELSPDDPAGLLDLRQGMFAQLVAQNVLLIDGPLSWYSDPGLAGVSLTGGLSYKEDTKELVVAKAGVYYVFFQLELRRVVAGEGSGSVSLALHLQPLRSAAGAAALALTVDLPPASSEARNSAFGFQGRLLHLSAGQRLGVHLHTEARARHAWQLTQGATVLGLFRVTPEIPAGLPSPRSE

Legend:
[1] = target: human CD137 (4-1BB) expressed on cells (human) (UniProt Q07011); test: flow cytometry, PMA-ionomycin stimulated CEM cells, detected with anti-mouse CD8
[2] = target: cynomolgus monkey CD137 expressed on PBMC (cynomolgus monkey) (UniProt A9YYE7); test: Flow cytometry on PMA-ionomycin stimulated cynomolgus monkey PBMC, detection with PE anti-mouse CD8, % positive cells
[3] = target: cynomolgus monkey CD137 expressed on PBMC (cynomolgus monkey) (UniProt A9YYE7); test: flow cytometry, PMA-ionomycin stimulated cynomolgus PBMC, detected with anti-mouse CD8
[4] = target: human CD137 (4-1BB) expressed on cells (human) (UniProt Q07011); test: Flow cytometry on PMA-ionomycin stimulated human CEM cells, detection with PE anti-mouse CD8, % positive cells

Measured: binding

Human CD137L-CD8 fusion protein (from UniProt P41273 50-254; P01731 28-196) (ligand)
binds: all assays above
